According to patent US20160185853A1 (UNIVERSITY OF SOUTHERN CALIFORNIA, published 2016):
Results are given in words; binding and its absence hold for the method and conditions named. Some binding calls cover weakened binding; strength is not graded here.

The chains behind the UniProt entries cited, without tags or fusion partners. Where a name states a change or a piece, a line headed by the entry shows the natural chain unless it says otherwise.
UniProt P11021: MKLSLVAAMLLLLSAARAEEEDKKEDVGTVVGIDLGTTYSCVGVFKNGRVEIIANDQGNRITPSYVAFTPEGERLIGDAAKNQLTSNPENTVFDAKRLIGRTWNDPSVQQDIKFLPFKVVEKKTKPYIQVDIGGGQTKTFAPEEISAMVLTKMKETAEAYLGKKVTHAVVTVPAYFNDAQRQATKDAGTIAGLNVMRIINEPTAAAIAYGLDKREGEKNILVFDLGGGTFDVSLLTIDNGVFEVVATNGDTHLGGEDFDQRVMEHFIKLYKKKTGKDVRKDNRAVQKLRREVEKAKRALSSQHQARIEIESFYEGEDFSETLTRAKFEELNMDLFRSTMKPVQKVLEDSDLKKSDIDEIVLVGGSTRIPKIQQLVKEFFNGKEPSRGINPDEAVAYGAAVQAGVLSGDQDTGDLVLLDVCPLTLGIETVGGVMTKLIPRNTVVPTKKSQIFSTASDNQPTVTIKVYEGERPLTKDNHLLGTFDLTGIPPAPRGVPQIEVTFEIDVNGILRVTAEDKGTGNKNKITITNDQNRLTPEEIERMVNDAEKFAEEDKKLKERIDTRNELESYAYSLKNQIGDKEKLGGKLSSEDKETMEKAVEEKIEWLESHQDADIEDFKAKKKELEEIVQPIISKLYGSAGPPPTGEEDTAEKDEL

Experiments:
human GRP78 [1] = biological target: T1, human GRP78 (human, UniProt P11021 19-654); experiment: Western blot of denatured and reduced whole cell lysates of 293T cells [panel B]
T1 construct: also called BiP/HSPA5; antigen

human GRP78 [2] = biological target: T1, human GRP78; experiment: summary of the examples

B1: MAb159 (murine monoclonal antibody) (antibody, V domains shown)
VH: QAQLQQPGAELVKPGASVRLSCKASGYTFTSYWMHWVKQRPGQGLEWIGEINPGNGRTNYNEKFKRKATLTVDKSSSTAYMQLNSLTSEDSAVYYCATLYYYDGTYDYWGQGTTLTVSS
VL: DIVMTQSHKFMSTSVGDRVSVTCKASQNVGTDVAWYQQKPGQSPKALIYWASNRFTGVPDRFTGSGSGTDFTLTINNVQSEDLVDYFCQQYSSSPWTFGGGTKLEIK
notes: Whole murine monoclonal antibody from a hybridoma, purified on protein G; also called murine MAb159; parental murine antibody
- binding (human GRP78 [1]): binds
- binding (human GRP78 [2]): binds
